The subject of the data set is DNA of tumor sarcoma 180 (S-180). Briefly: Influence on methylation of DNA of tumor sarcoma 180 in vitro (5-MC content). Format: cell-based. The following applies: 3 × 10^−6 M compound, tumor homogenate, 24 h at 37 °C; S-180 control 42.66. How it is done: It is known that DNA methylation in cancer plays a variety of roles, helping to change the healthy regulation of gene expression to a disease pattern. DNA hypermethylation in neoplasia is a specific epigenetic sign that can guide the diagnosis and treatment of this disease. We studied the effect of synthesized substances on tumor DNA in vitro. After the incubation of tumor cells with the studied compounds, the isolated DNA was hydrolyzed to nitrogen bases. In the studied DNA, the nucleotide composition (guanine (G), cytosine (C), 5-methylcitosine (5-MC), adenine (A), thymine (T)) complied with the rules of Chargaff. Isolated DNA belonged to the AT type, and the amount of basic bases (G + C + 5-MC) within them was 42.24–44.64 mol %, which is typical for eukaryotic DNA. Almost the same content of basic bases (G, C, A, and T) was observed, while a clear difference between DNA samples was found only in relation to the content of 5-MC, which indicated the demethylating ability of the compounds.
The influence of synthesized compounds on the methylation of DNA of tumor sarcoma 180 (S-180) was studied in vitro. Transplanted S-180 was isolated from animals after slaughter by decapitation under ether narcosis. A 3 × 10^−6 M solution of compounds (solvent: carboxymethylcellulose) was added to the tumor homogenate (12.5 mL of a solution per 10 g of tumor), and the mixture was incubated for 24 h at 37 °C. After the incubation, tumor DNA was extracted using the phenol–chloroform method. Hydrolysis to the nitrogen bases was carried out in sealed glass ampoules in 85% formic acid at 176 °C for 1 h (0.1 mL of acid per 1 mg of DNA). The separation of nitrogen bases (guanine (G), cytosine (C), 5-methylcitosine (5-MC), adenine (A), and thymine (T)) was produced by thin-layer chromatography in the solvent n-butanol/water/ammonia. Spectrophotometry of the eluates of all bases was made against eluates from the respective control areas of the chromatograms. In our studies, the well-known antitumor drug doxorubicin (manufactured by EBEWE Pharma Ges.m.b.H. Nfg. KG, 4866 Unterach, Austria) was used as a standard preparation. The data were statistically processed using Student’s and Fischer’s tests (p < 0.05).

Regarding `c1coc(-c2nc3sc4c(N5CCOCC5)ncnc4c3c3c2CCCC3)c1` [Compound 5c, 5-(2-Furyl)-8-morpholin-4-yl-1,2,3,4-tetrahydropyrimido[4′,5′:4,5]thieno[2,3-c]isoquinoline], the “Content of Bases in DNA, G + C + 5-MC” value was determined as 42.44 mol %. For the compound `CC(C)c1nc2oc3c(NCCCN(C)C)ncnc3c2c2c1COC(C)(C)C2` [Compound 7i], the “Content of Bases in DNA, G + C + 5-MC” value was 44.64 mol %. In the case of `CC(C)CNc1ncnc2c1sc1nc(-c3ccco3)c3c(c12)CCCC3` [Compound 5d, 5-(2-Furyl)-N-isobutyl-1,2,3,4-tetrahydropyrimido[4′,5′:4,5]thieno[2,3-c]isoquinolin-8-amine], the “Content of Bases in DNA, G + C + 5-MC” value amounted to 42.58 mol %. Consider `CC(C)Cc1nc2oc3c(NCCO)ncnc3c2c2c1COC(C)(C)C2` [Compound 7j, 2-[(5-Isobutyl-2,2-dimethyl-1,4-dihydro-2H-pyrano[4″,3″:4′,5′]pyrido[3′,2′:4,5]furo[3,2-d]pyrimidin-8-yl)amino]ethanol], for which the “Content of Bases in DNA, G + C + 5-MC” value was found to be 43.20 mol %.

For `CC(C)c1nc2oc3c(NCCO)ncnc3c2c2c1COC(C)(C)C2` [Compound 7a], the “Content of Bases in DNA, G + C + 5-MC” value amounted to 43.50 mol %. For `CC(C)c1nc2oc3c(NCc4cccnc4)ncnc3c2c2c1COC(C)(C)C2` [Compound 7h], the “Content of Bases in DNA, G + C + 5-MC” value is 43.20 mol %. On to `CC(C)c1nc2oc3c(NCCN4CCOCC4)ncnc3c2c2c1COC(C)(C)C2` [Compound 7d], for which the “Content of Bases in DNA, G + C + 5-MC” value came out at 43.44 mol %. The figure for `CC(C)c1nc2oc3c(NCc4ccco4)ncnc3c2c2c1COC(C)(C)C2` [Compound 7g, N-(2-Furylmethyl)-5-isopropyl-2,2-dimethyl-1,4-dihydro-2H-pyrano[4″,3″:4′,5′]pyrido[3′,2′:4,5]furo[3,2-d]pyrimidin-8-amine] is 43.32 mol %. Under `CC1CCN(c2ncnc3c2sc2nc(-c4ccco4)c4c(c23)CCCC4)CC1` [Compound 5b, 5-(2-Furyl)-8-(4-methylpiperidin-1-yl)-1,2,3,4-tetrahydropyrimido[4′,5′:4,5]thieno[2,3-c]isoquinoline] stands 43.74 mol %; under `CCN(CC)CCNc1ncnc2c1oc1nc(C(C)C)c3c(c12)CC(C)(C)OC3` [Compound 7c, N,N-Diethyl-N′-(5-isopropyl-2,2-dimethyl-1,4-dihydro-2H-pyrano[4″,3″:4′,5′]pyrido[3′,2′:4,5]furo[3,2-d]pyrimidin-8-yl)ethane-1,2-diamine], 42.72 mol %. With `c1coc(-c2nc3sc4c(N5CCCCC5)ncnc4c3c3c2CCCC3)c1` [Compound 5a, 5-(2-Furyl)-8-piperidin-1-yl-1,2,3,4-tetrahydropyrimido[4′,5′:4,5]thieno[2,3-c]isoquinoline], the “Content of Bases in DNA, G + C + 5-MC” value is given as 42.50 mol %. `COc1cccc2c1C(=O)c1c(O)c3c(c(O)c1C2=O)C[C@@](O)(C(=O)CO)C[C@@H]3O[C@H]1C[C@H](N)[C@H](O)[C@H](C)O1` [Doxorubicin, doxorubicin, reference compound]: the “Content of Bases in DNA, G + C + 5-MC” value came to 43.41 mol %.

As for `CC(C)Cc1nc2oc3c(NCCCO)ncnc3c2c2c1COC(C)(C)C2` [Compound 7k], the “Content of Bases in DNA, G + C + 5-MC” value amounted to 42.70 mol %. As to `CCN(CC)CCNc1ncnc2c1sc1nc(-c3ccco3)c3c(c12)CCCC3` [Compound 5e, N,N-Diethyl-N′-[5-(2-furyl)-1,2,3,4-tetrahydropyrimido[4′,5′:4,5]thieno[2,3-c]isoquinolin-8-yl]ethane-1,2-diamine], the “Content of Bases in DNA, G + C + 5-MC” value stood at 42.44 mol %. Under `CC(C)c1nc2oc3c(NCC4CCCO4)ncnc3c2c2c1COC(C)(C)C2` (centres unmarked) [Compound 7f, 5-Isopropyl-2,2-dimethyl-N-(tetrahydrofuran-2-ylmethyl)-1,4-dihydro-2H-pyrano[4″,3″:4′,5′]pyrido[3′,2′:4,5]furo[3,2-d]pyrimidin-8-amine] stands 42.82 mol %. As to `CC(C)c1nc2oc3c(NCCN(C)C)ncnc3c2c2c1COC(C)(C)C2` [Compound 7b], the “Content of Bases in DNA, G + C + 5-MC” value was 44.16 mol %.

On to `CCOC(=O)N1CCN(c2ncnc3c2sc2nc(C(C)C)c4c(c23)CC(C)(C)OC4)CC1` [Compound 7l, Ethyl 4-(5-isopropyl-2,2-dimethyl-1,4-dihydro-2H-pyrano[4″,3″:4′,5′]pyrido[3′,2′:4,5]thieno[3,2-d]pyrimidin-8-yl)piperazine-1-carboxylate], for which the “Content of Bases in DNA, G + C + 5-MC” value was 43.76 mol %. The figure for `COc1ccc(CCNc2ncnc3c2oc2nc(C(C)C)c4c(c23)CC(C)(C)OC4)cc1OC` [Compound 7e, N-[2-(3,4-Dimethoxyphenyl)ethyl]-5-isopropyl-2,2-dimethyl-1,4-dihydro-2H-pyrano[4″,3″:4′,5′]pyrido[3′,2′:4,5]furo[3,2-d]pyrimidin-8-amine] is 44.00 mol %; for `CC(C)c1nc2sc3c(NCC4CCCO4)ncnc3c2c2c1COC(C)(C)C2` (centres unmarked) [Compound 7m, 5-Isopropyl-2,2-dimethyl-N-(tetrahydrofuran-2-ylmethyl)-1,4-dihydro-2H-pyrano[4″,3″:4′,5′]pyrido[3′,2′:4,5]thieno[3,2-d]pyrimidin-8-amine] it is 43.06 mol %. With `c1coc(-c2nc3sc4c(NCC5CCCO5)ncnc4c3c3c2CCCC3)c1` (centres unmarked) [Compound 5f, 5-(2-Furyl)-N-(tetrahydrofuran-2-ylmethyl)-1,2,3,4-tetrahydropyrimido[4′,5′:4,5]thieno[2,3-c]isoquinolin-8-amine], the “Content of Bases in DNA, G + C + 5-MC” value turned out to be 44.02 mol %.
